# No constants are given. Whether binding was seen depends on the method and setting. Binding seen in cells or lysates may run through a third protein. Here binding means that the protein was enriched with, or labelled near, the bait; the list need not be complete.
# Protein sequences, listed by entry. Tags and fused reporters are not part of them.
# UniProt Q4J6C6: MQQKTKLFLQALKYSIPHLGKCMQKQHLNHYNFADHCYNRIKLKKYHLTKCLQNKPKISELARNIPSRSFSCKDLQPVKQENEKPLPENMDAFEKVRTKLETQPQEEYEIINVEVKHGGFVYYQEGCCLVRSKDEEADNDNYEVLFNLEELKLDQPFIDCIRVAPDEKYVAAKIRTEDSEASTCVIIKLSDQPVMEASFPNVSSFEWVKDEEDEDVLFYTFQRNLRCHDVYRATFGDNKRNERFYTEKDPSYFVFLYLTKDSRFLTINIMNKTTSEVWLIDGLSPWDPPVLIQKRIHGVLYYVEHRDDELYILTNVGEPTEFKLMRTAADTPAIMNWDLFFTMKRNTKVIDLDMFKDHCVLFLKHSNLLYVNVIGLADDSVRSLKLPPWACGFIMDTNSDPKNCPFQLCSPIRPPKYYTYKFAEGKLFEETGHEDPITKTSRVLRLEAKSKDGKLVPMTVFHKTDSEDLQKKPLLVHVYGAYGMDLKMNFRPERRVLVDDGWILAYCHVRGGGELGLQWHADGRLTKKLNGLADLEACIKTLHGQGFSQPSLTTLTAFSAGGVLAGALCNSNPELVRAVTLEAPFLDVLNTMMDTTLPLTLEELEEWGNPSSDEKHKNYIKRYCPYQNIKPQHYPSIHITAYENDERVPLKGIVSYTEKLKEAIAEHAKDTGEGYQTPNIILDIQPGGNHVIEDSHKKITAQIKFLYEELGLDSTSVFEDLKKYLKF
# Molecular target: PREPL(L)-Flag (prolyl-endopeptidase like, long mitochondrial isoform, Flag-tagged) (human) (UniProt Q4J6C6)
# Assay: affinity purification with mass spectrometry
binder,measurement,value
"FASTKD4 (protein, UniProt Q969Z0 108-631) SHLLSEKPEDKGLLIQDAHFHQLLCLLNSQIASVWHGTLSKLLGSLYALGIPKASKELQSVEQEVRWRMRKLKYKHLAFLAESCATLSQEQHSQELLAELLTHLERRWTEIEDSHTLVTVMMKVGHLSEPLMNRLEDKCLELVEHFGPNELRKVLVMLAAQSRRSVPLLRAISYHLVQKPFSLTKDVLLDVAYAYGKLSFHQTQVSQRLATDLLSLMPSLTSGEVAHCAKSFALLKWLSLPLFEAFAQHVLNRAQDITLPHLCSVLLAFARLNFHPDQEDQFFSLVHEKLGSELPGLEPALQVDLVWALCVLQQAREAELQAVLHPEFHIQFLGGKSQKDQNTFQKLLHINATALLEYPEYSGPLLPASAVAPGPSALDRKVTPLQKELQETLKGLLGSADKGSLEVATQYGWVLDAEVLLDSDGEFLPVRDFVAPHLAQPTGSQSPPPGSKRLAFLRWEFPNFNSRSKDLLGRFVLARRHIVAAGFLIVDVPFYEWLELKSEWQKGAYLKDKMRKAVAEELAK",binding,binds

# Reference: doi:10.1101/2023.02.11.528118
